Test results reported in PubChem BioAssay AID1259354 (Paczesny and Yang Labs, IUPUI and University of Michigan, 2018).
The whole screen tested about 78,000 compounds, of which about 1,800 (2.3%) were called active. The shares of active, inactive and inconclusive entries below differ from those in the screen. Cut-off read from the data, not from the text of the source: active = inhibition above about 30%; inconclusive = mostly about 10% to 28%; inactive = weaker than that.

The chains behind the UniProt entries cited, without tags or fusion partners. Where a name states a change or a piece, a line headed by the entry shows the natural chain unless it says otherwise.
UniProt Q01638: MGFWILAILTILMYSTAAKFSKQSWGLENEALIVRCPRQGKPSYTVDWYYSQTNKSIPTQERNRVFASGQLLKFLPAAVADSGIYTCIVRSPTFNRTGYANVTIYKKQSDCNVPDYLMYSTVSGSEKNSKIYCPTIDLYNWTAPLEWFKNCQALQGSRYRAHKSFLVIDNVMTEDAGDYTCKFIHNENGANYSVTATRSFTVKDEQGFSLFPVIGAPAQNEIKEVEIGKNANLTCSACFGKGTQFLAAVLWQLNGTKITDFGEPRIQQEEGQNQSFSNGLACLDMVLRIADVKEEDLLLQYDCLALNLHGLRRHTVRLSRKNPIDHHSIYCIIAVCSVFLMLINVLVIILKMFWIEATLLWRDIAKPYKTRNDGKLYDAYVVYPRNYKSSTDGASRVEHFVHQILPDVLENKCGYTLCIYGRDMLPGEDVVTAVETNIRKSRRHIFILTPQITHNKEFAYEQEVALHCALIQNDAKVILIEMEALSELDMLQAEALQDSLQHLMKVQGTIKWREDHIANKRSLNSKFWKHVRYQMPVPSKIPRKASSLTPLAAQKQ

Molecular target: Interleukin-1 receptor-like 1 (Homo sapiens) (UniProt Q01638)
Test: blocks human ST2 binding to IL-33, primary screen, biochemical, AlphaLISA (AID 1259354)
Settings: AlphaLISA ST2-Fc/biotin-IL-33 interaction, 1 h; at 17 µM, stronger effect = higher value

| SMILES | inhibition |
| --- | --- |
| CCCCNc1c(CN2CCCC2)c(=O)oc2ccccc12 | inactive |
| COc1cc(/C=C2/C(=O)N(c3ccccc3)N=C2C)ccc1OCCOc1ccc(C)cc1 | inconclusive: 20% |
| COc1ccc(NC(=O)COc2ccc(Br)cc2C)cc1OC | inconclusive: 10% |
| CC1(C)CC(=O)C2=C(C1)N(c1cccc(Cl)c1)C(N)=C(C#N)C2c1ccc2c(c1)OCO2 (centres undefined) | inconclusive: 17% |
| O=C(O)[C@H]1C[C@H](C(=O)NCc2cccnc2)CN(Cc2cc3ccccc3o2)C1 | inconclusive: 11% |
| O=C1C2C(C(=O)N1c1ccccc1Cl)[C@H]1C=C[C@@H]2CC1 (some centres undefined) | inactive |
| O=C(Nc1nnc(/C=C/c2ccccc2)s1)c1ccccc1Cl | inconclusive: 13% |
| CCN(Cc1ccccc1)S(=O)(=O)c1cccc2cccnc12 | inactive |
| C/C(Nc1ccccc1O)=C1/C(=O)C[C@@H]2[C@H]1C2(C)C | inconclusive: 10% |
| CCS(=O)(=O)N1CCN(c2nc(C)cc(N3CCOCC3)n2)CC1 | inconclusive: 14% |
| Cc1ccccc1-c1nnc(NC(=O)NCc2nnc3n2CCCC3)s1 | inactive |
| O=c1[nH]c2ccccc2nc1Cc1ccc(Cl)cc1Cl | inconclusive: 15% |
| CCOc1cc(C2C(C#N)=C(N)Oc3n[nH]c(C(C)C)c32)cc([N+](=O)[O-])c1O (centres undefined) | inactive |
| O=C1Nc2ccccc2NC12CCN(c1ncnc3[nH]ccc13)CC2 | inconclusive: 13% |
| CCOC(=O)c1ccc(-c2ccc(/C=C/c3[nH]c(=O)[nH]c(=O)c3[N+](=O)[O-])o2)cc1 | inactive |
| CCOc1ccc(CC2SC(N)=NC2=O)cc1 (centres undefined) | inactive |
| CC(C)(O)C#Cc1ccc(C2CC(=O)Nc3c2cnn3CC2CC2)cc1 (centres undefined) | inconclusive: 15% |
| CN1C[C@@H](NC(=O)c2ccc(C(C)(C)C)cc2)C[C@H]1c1nc(-c2ccc3c(c2)OCO3)no1 | active: 64% |
| O=S(=O)(NCc1ccccc1)NCC1COc2ccccc2O1 (centres undefined) | inconclusive: 13% |
| O=C(c1cccc([N+](=O)[O-])c1)n1cc(Br)cn1 | inactive |

Some values from the results shown.
Entry of `O=C(Nc1nnc(/C=C/c2ccccc2)s1)c1ccccc1Cl` under inhibition: inconclusive: 13%
Entry of `O=C(O)[C@H]1C[C@H](C(=O)NCc2cccnc2)CN(Cc2cc3ccccc3o2)C1` under inhibition: inconclusive: 11%
Entry of `CCOc1cc(C2C(C#N)=C(N)Oc3n[nH]c(C(C)C)c32)cc([N+](=O)[O-])c1O` (centres undefined) under inhibition: inactive

(list continues)

| SMILES | inhibition |
| --- | --- |
| COc1cc2c(cc1OC)CN(Cc1ccc(C)o1)CC2 | inconclusive: 14% |
| CNS(=O)(=O)CCNc1nc(C)nc2c1CCN(C)CC2 | inconclusive: 10% |
| c1ccc2oc([C@H]3CCN(Cc4ncc[nH]4)C3)nc2c1 | inconclusive: 23% |
| Cc1ccc(S(=O)(=O)NC(C(=O)Oc2cc3oc(=O)cc(C)c3cc2Cl)C(C)C)cc1 (centres undefined) | inconclusive: 15% |
| COCC(=O)N[C@H]1CC[C@]2(C)CC[C@@H]([C@H](C)C(=O)NC(C)(C)C)[C@H](O)[C@H]2[C@@H]1C | inconclusive: 11% |
| COc1ccc(/C(N)=N\OC(=O)CC(c2ccccc2)c2ccccc2)cc1OC | inconclusive: 22% |
| COc1ccc(Cl)cc1S(=O)(=O)n1nnc2ccccc21 | inconclusive: 26% |
| CCOC(=O)C[C@@H]1C[C@@H](C(C)C)[C@H](CNC(=O)C(C)(C)C)C=C1C | inconclusive: 10% |
| c1ccc2c(CN3CCOCC3)ccnc2c1 | active: 40% |
| Cc1ccc2oc(C(=O)NCC3COc4ccccc4O3)c(C)c2c1 (centres undefined) | inactive |
| Cc1ccccc1-c1cccc(C(=O)NC(C)c2cnn(C)c2)c1 (centres undefined) | inactive |
| CN(C)CCNc1nc(Cc2ccccc2)nc2sc3c(c12)CCCC3 | inconclusive: 14% |
| CCCCOc1ccc(C2C(C#N)=C(N)OC3=C2C(=O)CC(C)(C)C3)cc1OC (centres undefined) | inactive |
| N#Cc1c(NC(=O)CN2CCCCCC2)sc2c1CCC2 | inactive |
| Cc1ccc(-c2nc(-c3c(C)ncc4c3CCNC4)no2)cc1-n1cccc1 | inconclusive: 11% |
| OCCC1CN(Cc2cn[nH]c2-c2cccc(F)c2)CCN1C1CCCC1 (centres undefined) | inconclusive: 15% |
| Cc1c(/C=C(\C#N)C(=O)NCc2ccco2)c2ccccc2n1Cc1ccccc1Cl | inconclusive: 21% |
| CN(CC(=O)N1CCCc2c1c(=O)oc1ccc(O)cc21)c1ccccc1 | inconclusive: 13% |
| COc1ccc(NC(=O)N2Cc3[nH]cnc3C[C@H]2c2nc(C)no2)cc1 | inconclusive: 12% |
| NC(=O)CO[C@@H]1CO[C@H]2[C@@H]1OC[C@@H]2NC(=O)Nc1ccccc1 | inconclusive: 11% |

| SMILES | inhibition |
| --- | --- |
| COc1ccc(C2CC(=O)C3=C(C2)Nc2ccccc2NC3c2ccc(Cl)c([N+](=O)[O-])c2)cc1 (centres undefined) | inconclusive: 25% |
| Cc1ccsc1C1CC(=O)NC(SCC(=O)OCc2ccccc2)=C1C#N (centres undefined) | inconclusive: 20% |
| Cc1nc(N2CCCCC2)c2c(C)c(C(=O)O)sc2n1 | inactive |
| CSc1ccc(NC(=O)NCc2cccnc2N(C)C)cc1 | inconclusive: 11% |
| CCC(C(=O)NCc1cnn2ccccc12)n1cccn1 (centres undefined) | inconclusive: 11% |
| COc1ccc(-c2cc(C(=O)Nc3nccs3)c3ccccc3n2)c(OC)c1 | inconclusive: 17% |
| O=C(Nc1ccc(S(=O)(=O)Nc2nccs2)cc1)Nc1ccc(Cl)c(Cl)c1 | inactive |
| CCc1c(C)sc2ncnc(N3CC[C@@H](N4CCC(O)CC4)[C@H](O)C3)c12 | inconclusive: 24% |
| CCc1nnc(CN2CCC3(CCCO3)CCC2=O)o1 (centres undefined) | inconclusive: 17% |
| CCn1c(SCC(=O)OC)nc2sc3c(c2c1=O)CCCC3 | inactive |
| CNc1cc(C(=O)N(Cc2noc(C)n2)C(C)C)ccn1 | inconclusive: 10% |
| C/C=C/C=C/C=C/C(=O)O[C@@H]1C=C2CO[C@@H](O)[C@]2(O)[C@@]2(C)CCCC(C)(C)[C@H]12 | inactive |
| O=C(CC1C(=O)NCCN1Cc1ccccc1)NCc1scnc1-c1ccccc1 (centres undefined) | inconclusive: 14% |
| CCOc1ccc(-c2nc(SCC(=O)Nc3cc(OC)ccc3OC)n3[nH]c(=O)cc3n2)cc1 | inconclusive: 11% |
| Cc1cc2oc(=O)cc(C)c2cc1NC(=O)c1ccc[nH]1 | inactive |
| COc1cc2c(cc1-c1c(-c3ccccc3)ncn1CC(N)=O)CCC2 | inconclusive: 12% |
| CCCC1COCCN1C(=O)COc1ncnc2ccccc12 (centres undefined) | inconclusive: 29% |
| CCOc1cc(C(Nc2ccccn2)c2ccc3cccnc3c2O)ccc1OC (centres undefined) | inconclusive: 22% |
| Cc1c(C(=O)N2CCCCC2)sc2nc(-c3ccccc3)cn12 | inactive |
